# PubChem BioAssay AID2685 (National Center for Advancing Translational Sciences (NCATS), 2010)
# The other results are listed elsewhere or left out. Shown are side measurements of this screen, not its main read-out; they come without a call. Compounds called inactive in the main read-out are mostly missing here. Potencies come from curve fits of mixed quality, noted in brackets. Where a SMILES comes first, the peptide text is derived from it. [ ]: non-standard residue; d: D form. The star is where a group is joined. ξ: configuration not given here. Boc = CC(C)(C)OC(=O)*; NHBn = c1ccc(CN*)cc1; ξV = CC(C)C(N)C(=O)O
# Assay: qHTS Assay for Lipid Storage Modulators in Drosophila S3 Cells;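 for cell number change: cells counted by Cell Tracker Red CMTPX staining in the red channel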
# Conditions: BODIPY lipid droplet fluorescence, 18-24 h; for cell number change: measured here: cell count max response, cells fed with added oleic acid
# Procedure, shortened: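 Drosophila S3 cells got compounds at several concentrations plus oleic acid (400 uM solution). Laser-scanning cytometry with 488 nm excitation read lipid droplets at 500-530 nm and cells at 575-640 nm. Percent activity was relative to 20 uM Triacsin C.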
# [1] = measured here: lipid fluorescence (Fed channel) AC50, cells fed with added oleic acid
# [2] = measured here: cell number channel AC50, cells fed with added oleic acid
SMILES,cell number change [%],AC50 [1],AC50 [2]
CC[C@@]12C(=O)N(c3ccccc3)C(=O)N1[C@H](c1ccc(OC)cc1)[C@@H]1C(=O)N(C(C)(C)C)C(=O)[C@@H]12,-1.39,"0.13 µM [falling, full curve, poor fit]",
COc1cc(CNn2nnnc2N)cc(Br)c1OCc1c(Cl)cccc1Cl,12,"29.1 µM [rising, single point]",
Cc1c(C(=O)NCCNc2ncc(C(F)(F)F)cc2Cl)cccc1[N+](=O)[O-],2.78,"6.51 µM [falling, single point]",
Cc1n[nH]c(=S)n(NC(=O)/C=C/C(=O)Nn2c(=S)[nH]nc(C)c2=O)c1=O,46.7,"0.146 µM [falling, full curve, poor fit]",
Cc1cnc(NC(=O)C2CC=CCC2)s1 (centres undefined),2.52,"0.116 µM [falling, partial curve, poor fit]",
O=C(NNC(=O)c1cc(-c2ccncc2)nc2ccccc12)c1cccc(Cl)c1,-18.5,"29.1 µM [falling, single point]","2.91 µM [rising, single point]"
Cc1cc(O)ccc1NC(=O)CCN1C(=O)c2ccc([N+](=O)[O-])cc2C1=O,-14.1,"0.092 µM [falling, full curve, poor fit]",
COc1cc(C(=O)Nc2cccc(C)n2)ccc1OCC(=O)N1CCOCC1,-3.63,"29.1 µM [falling, single point]",
Cc1ccc(NC(=O)COC(=O)CN2CCCCCC2=O)cc1C,-0.413,"0.164 µM [falling, full curve, poor fit]",
CCOc1ccc(/C=N/Nc2ccccn2)cc1OC,39.2,"0.58 µM [rising, single point]",
COc1ccc([C@H]2CC(=O)C=C(c3ccnc4ccc(Cl)cc34)C2)cc1,-49.3,"29.1 µM [falling, partial curve, poor fit]","9.2 µM [falling, single point]"
O=C(Cn1cnc2cc([N+](=O)[O-])ccc2c1=O)NCc1ccccc1,30.6,,
CCOc1ccc(OCC)c(NC(=O)CSCCc2ccccn2)c1,,,"0.651 µM [falling, single point]"
CCOC(=O)N1CCN(C(=O)c2ccccc2-c2ccccc2)CC1,-18.7,"9.2 µM [falling, single point]",
Cc1cc(/C=N/n2cnnc2)c(C)n1-c1ccc(C(=O)O)cc1,11,"0.13 µM [rising, full curve, poor fit]",
CC(C)c1nnc(NC(=O)CCC(=O)N2CCN(c3ccc(F)cc3)CC2)s1,-16.2,,"2.91 µM [falling, partial curve, poor fit]"
CC(C)(C)c1ccc(-c2nc3n(c(=O)c2C#N)CCS3)cc1,-37.7,,"23.1 µM [falling, single point]"
Cc1ccc2cc(CNC(C)(C)C)c(=O)[nH]c2c1,19.2,"2.31 µM [falling, partial curve]",
Cc1cc(C)c2[nH]c(=O)c(CN(Cc3cccs3)C(=S)NCC3CCCO3)cc2c1 (centres undefined),27.4,"0.651 µM [rising, partial curve]","1.84 µM [rising, full curve, poor fit]"
CC(=O)Nc1nc(C)nc(C)c1C(C)=O,,"6.51 µM [falling, single point]",
COc1ccc(/C=N/Nc2ccc([N+](=O)[O-])cc2S(=O)(=O)N2CCN(C)CC2)cc1,-57.4,"0.517 µM [rising, partial curve]","7.31 µM [falling, partial curve]"
COC(=O)C(Cc1ccc(O)cc1)NC(=O)NC12CC3CC(CC(C3)C1)C2 (centres undefined),-40.2,,"16.4 µM [falling, single point]"
COc1ccc(Cl)cc1C(=O)NNC(=O)c1cccc([N+](=O)[O-])c1,0.955,"6.51 µM [rising, partial curve, poor fit]","0.00517 µM [rising, full curve, poor fit]"
C/C(=N\OCc1nc2ccccc2c(=O)n1/N=C/c1cc([N+](=O)[O-])ccc1O)c1ccccc1,7.07,"0.231 µM [rising, full curve]","0.146 µM [rising, full curve]"
O=C(NC1CC1)c1ccc(F)cc1Cl,-16.1,"20.6 µM [falling, partial curve]","0.00461 µM [falling, full curve, poor fit]"
O=C1COc2ccc(C(=O)COC(=O)c3ccc4ccccc4n3)cc2N1,17.4,"11.6 µM [rising, single point]",
COc1ccc(OC)c(NC(=O)c2ccc(-c3cccs3)cc2)c1,-19,,"6.51 µM [falling, single point]"
COc1cc(C(=O)NNC(=O)COc2ccc(Cl)cc2)ccc1OCC(=O)N1CCOCC1,-15.8,"32.6 µM [rising, partial curve, poor fit]",

# Entries shown so far that have a tert-butyl group, in the order listed:
SMILES,cell number change [%],AC50 [1],AC50 [2]
CC[C@@]12C(=O)N(c3ccccc3)C(=O)N1[C@H](c1ccc(OC)cc1)[C@@H]1C(=O)N(C(C)(C)C)C(=O)[C@@H]12,-1.39,"0.13 µM [falling, full curve, poor fit]",
CC(C)(C)c1ccc(-c2nc3n(c(=O)c2C#N)CCS3)cc1,-37.7,,"23.1 µM [falling, single point]"
Cc1ccc2cc(CNC(C)(C)C)c(=O)[nH]c2c1,19.2,"2.31 µM [falling, partial curve]",

# The results go on.

SMILES,cell number change [%],AC50 [1],AC50 [2]
CCn1c(SCC(=O)c2cc(C)n(CC3CCCO3)c2C)nc2ccccc21 (centres undefined),-15,"0.58 µM [rising, full curve, poor fit]",
CC(=O)c1ccc(S(=O)(=O)Nc2ccc(C(=O)N(C)CC(=O)Nc3cccc(C)c3C)cc2)cc1,1.23,,
COc1cc(S(=O)(=O)N2CCOCC2)cc(C(=O)OCC(=O)NCc2ccco2)c1OC,-2.28,"0.0366 µM [rising, single point]",
COc1cc(CNC2CCCC2)cc(OC)c1,-12.4,"0.651 µM [falling, full curve, poor fit]",
COC(=O)c1ccccc1OCC(=O)N1CCN(c2ccc(OC)cc2)CC1,4.16,,"6.51 µM [rising, partial curve, poor fit]"
C#CCOCCOCCOCCNc1nc(N2CCN(C(=O)CCCCCCCCCCNC(=O)Cn3cc(CCCCCN)nn3)CC2)nc(N2CCN(C(=O)CCCCCCCCCCNC(=O)[C@H](CO)n3cc(CCCCCN)nn3)CC2)n1,-48.5,"0.164 µM [rising, full curve, poor fit]","23.1 µM [falling, partial curve]"
COC(=O)c1ccccc1NC(=O)Nc1cccs1,24.9,"29.1 µM [rising, single point]",
CN1C(=O)C(C)(C)c2cc(S(=O)(=O)NCc3ccc(Cl)cc3)ccc21,-5.48,"23.1 µM [falling, single point]",
CCCC(C(=O)NC1CCCC1)N(C(=O)c1snc(C(N)=O)c1N)c1ccc(OCC)cc1 (centres undefined),-7.39,"0.58 µM [rising, single point]",
CC(=O)Oc1cc2c(C(=O)NCCCN3CCOCC3)c(C)oc2c2ccccc12,6.02,"0.116 µM [falling, full curve, poor fit]",
CCCC(=O)N1CCCC(C(=O)c2ccc(OC)c(OC)c2)C1 (centres undefined),18.7,,
Cc1cccc(OCc2nnc(SCc3nc4cc(C(F)(F)F)ccc4c(=O)[nH]3)o2)c1,-55.3,"32.6 µM [falling, single point]","18.4 µM [falling, single point]"
CC(=O)NNC(=O)c1nc(-c2ccccc2)c(C)o1,35.4,"1.16 µM [rising, partial curve, poor fit]","0.116 µM [rising, full curve, poor fit]"
CSc1sc(-c2ccnc(SCCS(C)(=O)=O)n2)c(-c2ccccc2)c1C#N,5.68,,
CCOc1ccc(Oc2ccccc2NC(=O)CN2C(=O)NC3(CCCC3)C2=O)cc1,-27.3,,
Cc1nnc(SCC(=O)Nc2ccccc2)n(N)c1=O,19.4,,
CC(C)(C)NC(=O)CSc1nc2ccccc2n1-c1ccccc1,46.2,,"2.06 µM [rising, full curve]"
Cc1ccc(CNC(=O)CCNC(=O)N2CCn3c2nc2ccccc23)cc1,4.84,"0.00411 µM [rising, full curve, poor fit]",
CC(C)C(NC(=O)CNC(=O)OC(C)(C)C)C(=O)NCc1ccccc1 (stereo not drawn) (Boc-Gly-[ξV]-NHBn),3.1,,
COCCNC(=O)CSCc1c(F)cccc1Cl,8.02,"4.61 µM [rising, partial curve, poor fit]",
Cc1cccc(-c2sc(Nc3ccccc3)n[n+]2-c2ccccc2)c1,3.96,"6.51 µM [falling, single point]","6.51 µM [falling, single point]"
O=C(Nc1ccccc1C(=O)Nc1nnc(C(F)(F)F)s1)c1ccccc1Cl,-57.9,"29.1 µM [falling, single point]","20.6 µM [falling, single point]"
CS(=O)(=O)c1ccc(C(=O)N2CCN(Cc3ccccc3)CC2)cc1,12.5,"6.51 µM [falling, single point]",
CCCCC1C(=O)N(c2ccccc2)N(c2ccccc2)C1=O,-12.7,"0.103 µM [falling, full curve, poor fit]",
Cc1cccc(C(=O)OCC(=O)NCC2COc3ccccc3O2)c1 (centres undefined),6.71,"0.58 µM [rising, single point]",
COc1ccccc1C(NC(=O)CC(C)C)c1c(O)ccc2ccccc12 (centres undefined),-40.4,"29.1 µM [falling, single point]","14.6 µM [falling, single point]"
CCCCn1c(-c2ccc([N+](=O)[O-])cc2)n[nH]c1=S,-13.4,"11.6 µM [rising, partial curve]",
